The record followed here is the supplement of paper PMC3682954.

The assay relates to RAW 264.7. The assay is described as follows: HMGB1-induced TNF-alpha production relative to HMGB1-stimulated control; higher = more TNF-alpha secretion (less inhibition). To be noted: stimulus: HMGB1 5 ug/ml, 18 h.
Setting [1] is: compound concentration: 1 ug/ml.

The structures appear in SMILES notation. Structures can show the parent of a compound that is named as a salt. ± gives the standard deviation of the averaged measurements. This is one part of the list. Most values come without repeats; read them as rough.

As to `Cc1nccn1CC1CCc2c(c3ccccc3n2C)C1=O` (stereo unspecified), where the note is “compound concentration: 3 uM”, the “HMGB1-induced TNF-alpha production” value is 110%. For `Cc1nccn1CC1CCc2c(c3ccccc3n2C)C1=O` (stereo unspecified) [Ondansetron], the “HMGB1-induced TNF-alpha production” value (compound concentration: 3 uM) is 83.7%. With `Cc1nccn1CC1CCc2c(c3ccccc3n2C)C1=O` (stereo unspecified) [Ondansetron Hydrochloride], the “HMGB1-induced TNF-alpha production” value (compound concentration: 3 uM) was found to be 120%. On the same count and under the same terms, for `CC(=O)NCCCCCCNC(C)=O` the value was 117%.

For `NC(=O)c1cc[n+](CC2=C(C(=O)[O-])N3C(=O)[C@@H](NC(=O)Cc4cccs4)[C@H]3SC2)cc1`, the “HMGB1-induced TNF-alpha production” value (compound concentration: 3 uM) is 93.1%.

Take `O=C1C(O)=C(O)C(=O)C(O)=C1O` [Tetrahydroxy-1,4-quinone monohydrate]: the “HMGB1-induced TNF-alpha production” value (compound concentration: 3 uM) is 112%. `O=C1C(O)=C(O)C(=O)C(O)=C1O`: for the setting “compound concentration: 3 uM”, the “HMGB1-induced TNF-alpha production” value amounted to 81.6%.

With `CC(=O)NC[C@H]1CN(c2ccc(N3CCOCC3)c(F)c2)C(=O)O1` [Linezolid], for the setting “compound concentration: 3 uM”, the “HMGB1-induced TNF-alpha production” value turned out to be 92.1 ± 14%.

For the compound `CC(=O)NC[C@H]1CN(c2ccc(N3CCOCC3)c(F)c2)C(=O)O1`, the “HMGB1-induced TNF-alpha production” value (compound concentration: 3 uM) came out at 84.7%.

As to `O=c1c2ccccc2[nH]c(=S)n1CCN1CCC(=C(c2ccc(F)cc2)c2ccc(F)cc2)CC1` [Diacylglycerol Kinase Inhibitor II], the “HMGB1-induced TNF-alpha production” value (compound concentration: 3 uM) was found to be 86%.

Regarding `CSc1ccc(OCCN=Cc2c(O)c(O)c(C(C)C)c3cc(C)c(-c4c(C)cc5c(C(C)C)c(O)c(O)c(C=NCCOc6ccc(SC)cc6)c5c4O)c(O)c23)cc1`, under setting [1], the “HMGB1-induced TNF-alpha production” value is 50.4%. `Cc1cc(O)cc2oc(-c3ccccc3)cc(=O)c12` [7-Hydroxy-5-methylflavone]: under setting [1], the “HMGB1-induced TNF-alpha production” value is 64.2%. As to `CC(C)CCCC(C)C1CCC2C3CC=C4CC(O)CCC4(C)C3CCC12C` (stereo unspecified), the “HMGB1-induced TNF-alpha production” value under setting [1] was determined as 73.4%. Take `Cc1c2oc3c(C)ccc(C(=O)N[C@@H]4C(=O)N[C@H](C(C)C)C(=O)N5CCC[C@H]5C(=O)N(C)CC(=O)N(C)[C@@H](C(C)C)C(=O)O[C@@H]4C)c3nc-2c(C(=O)N[C@@H]2C(=O)N[C@H](C(C)C)C(=O)N3CCC[C@H]3C(=O)N(C)CC(=O)N(C)[C@@H](C(C)C)C(=O)O[C@@H]2C)c(N)c1=O`: under “compound concentration: 3 uM”, the “HMGB1-induced TNF-alpha production” value is -0.851 ± 1.9%. The same measure, in the same setting: next, `COc1ccc2c(c1)c(CC(=O)OCC(=O)O)c(C)n2C(=O)c1ccc(Cl)cc1` [Acemetacin]: 63.2 ± 19%; `COc1ccc2c(c1)c(CC(=O)OCC(=O)O)c(C)n2C(=O)c1ccc(Cl)cc1`: 81.5%. On the same count and under the same terms, next, `COc1ccc2cc3[n+](cc2c1OC)CCc1cc2c(cc1-3)OCO2`: 99.1 ± 2.2%. Regarding `Nc1ncnc2c1ncn2[C@H]1CC[C@@H](CO)O1` [2',3'-Dideoxyadenosine], the “HMGB1-induced TNF-alpha production” value under setting [1] is 59.7%. On to `CC[C@@H]1Cc2cc(O)ccc2C2=C1c1ccc(O)cc1C[C@H]2CC` [(R,R)-cis-Diethyl tetrahydro-2,8-chrysenediol], for which the “HMGB1-induced TNF-alpha production” value (compound concentration: 3 uM) is 68.8%. Still for that read-out and setting: next, `OCC(S)CS` (stereo unspecified): 57.5%. On to `CC(C)Cn1c(=O)n(C)c(=O)c2nc[nH]c21` [Isobutylmethylxanthine], for which the “HMGB1-induced TNF-alpha production” value (compound concentration: 3 uM) was determined as 97.6%. `N=C(N)SCCN` [2-(2-Aminoethyl)isothiourea dihydrobromide]: the “HMGB1-induced TNF-alpha production” value (compound concentration: 3 uM) worked out at 109%. Same read-out and setting: next, `CCCCC1C(=O)N(c2ccccc2)N(c2ccccc2)C1=O`: 93.1%; `CCCCC1C(=O)N(c2ccccc2)N(c2ccccc2)C1=O` [Phenylbutazone]: 95.1 ± 7.1%; `CNCCCCOc1ccccc1Cc1ccccc1` [Bifemelane]: 80.5%.

Consider `COCCCOc1cc(C[C@@H](C[C@H](N)[C@@H](O)C[C@H](C(=O)NCC(C)(C)C(N)=O)C(C)C)C(C)C)ccc1OC`, for which the “HMGB1-induced TNF-alpha production” value (compound concentration: 3 uM) was found to be 99.3%.

On to `CCCCOC(=O)c1ccc(O)cc1`, for which the “HMGB1-induced TNF-alpha production” value (compound concentration: 3 uM) amounted to 97%. Consider `CCCCOC(=O)c1ccc(O)cc1` [Butylparaben], for which, where the note is “compound concentration: 3 uM”, the “HMGB1-induced TNF-alpha production” value turned out to be 98.9%. The same measure, in the same setting: for `C#C[C@]1(OC(C)=O)CC[C@H]2[C@@H]3CCC4=CC(=O)CC[C@@H]4[C@H]3CC[C@@]21C` the value was 92.3%; for `CCCc1nc2c(C)cc(-c3nc4ccccc4n3C)cc2n1Cc1ccc(-c2ccccc2C(=O)O)cc1` [Telmisartan], 96.6 ± 8.4%.

Regarding `CCCc1nc2c(C)cc(-c3nc4ccccc4n3C)cc2n1Cc1ccc(-c2ccccc2C(=O)O)cc1`, the “HMGB1-induced TNF-alpha production” value (compound concentration: 3 uM) was 78.8%. Still for that read-out and setting: for `O=C(O)Cc1ccc(O)c(O)c1` [3,4-Dihydroxyphenylacetic acid] the value was 91.1%.

In the case of `NC(N)=NCCC[C@H](NC(=O)c1ccccc1)C(=O)O` [N-à-Benzoyl-L-arginine], the “HMGB1-induced TNF-alpha production” value under setting [1] was determined as 95.6%. In the case of `CC(=O)/N=c1/sc(S(N)(=O)=O)nn1C`, the “HMGB1-induced TNF-alpha production” value (compound concentration: 3 uM) is 79.4%. On the same count and under the same terms, next, `CC(=O)/N=c1/sc(S(N)(=O)=O)nn1C` [Methazolamide]: 134%. With `CC1=CC(=O)c2ccccc2C1=O`, for the setting “compound concentration: 3 uM”, the “HMGB1-induced TNF-alpha production” value is 62.4%.

`N=C(N)N1CCc2ccccc2C1` [Debrisoquin]: the “HMGB1-induced TNF-alpha production” value (compound concentration: 3 uM) amounted to 116%. On the same count and under the same terms, next, `N=C(N)N1CCc2ccccc2C1` [Debrisoquin sulfate]: 81.6 ± 4.2%; `N=C(N)N1CCc2ccccc2C1`: 94.4%. In the case of `CC(Cc1ccc(O)c(O)c1)C(C)Cc1ccc(O)c(O)c1` (stereo unspecified) [Nordihydroguaiaretic acid], the “HMGB1-induced TNF-alpha production” value under setting [1] stood at 37.7%.

In the case of `CCN(CC)CCCN(c1ccccc1)C1Cc2ccccc2C1` [Aprindine hydrochloride], under “compound concentration: 3 uM”, the “HMGB1-induced TNF-alpha production” value worked out at 90.1%.
